{"sequences": {"note": "Chains of the proteins cited; added tags and fusions are not shown. Lines headed by an entry give the natural chain unless they say otherwise; changes in a name come on top.", "UniProt P19793": "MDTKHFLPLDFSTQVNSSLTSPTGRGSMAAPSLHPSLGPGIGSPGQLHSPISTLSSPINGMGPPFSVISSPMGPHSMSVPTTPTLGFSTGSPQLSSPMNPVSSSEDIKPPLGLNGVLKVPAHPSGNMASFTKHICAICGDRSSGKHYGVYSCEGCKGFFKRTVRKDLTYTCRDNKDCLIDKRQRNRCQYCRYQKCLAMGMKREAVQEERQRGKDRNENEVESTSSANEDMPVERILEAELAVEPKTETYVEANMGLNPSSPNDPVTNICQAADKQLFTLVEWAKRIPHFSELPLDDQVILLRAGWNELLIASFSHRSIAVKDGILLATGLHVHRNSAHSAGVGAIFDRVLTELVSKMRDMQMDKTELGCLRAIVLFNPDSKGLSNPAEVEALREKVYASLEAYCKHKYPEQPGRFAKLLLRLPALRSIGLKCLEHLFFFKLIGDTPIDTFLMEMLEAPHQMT", "UniProt P10275": "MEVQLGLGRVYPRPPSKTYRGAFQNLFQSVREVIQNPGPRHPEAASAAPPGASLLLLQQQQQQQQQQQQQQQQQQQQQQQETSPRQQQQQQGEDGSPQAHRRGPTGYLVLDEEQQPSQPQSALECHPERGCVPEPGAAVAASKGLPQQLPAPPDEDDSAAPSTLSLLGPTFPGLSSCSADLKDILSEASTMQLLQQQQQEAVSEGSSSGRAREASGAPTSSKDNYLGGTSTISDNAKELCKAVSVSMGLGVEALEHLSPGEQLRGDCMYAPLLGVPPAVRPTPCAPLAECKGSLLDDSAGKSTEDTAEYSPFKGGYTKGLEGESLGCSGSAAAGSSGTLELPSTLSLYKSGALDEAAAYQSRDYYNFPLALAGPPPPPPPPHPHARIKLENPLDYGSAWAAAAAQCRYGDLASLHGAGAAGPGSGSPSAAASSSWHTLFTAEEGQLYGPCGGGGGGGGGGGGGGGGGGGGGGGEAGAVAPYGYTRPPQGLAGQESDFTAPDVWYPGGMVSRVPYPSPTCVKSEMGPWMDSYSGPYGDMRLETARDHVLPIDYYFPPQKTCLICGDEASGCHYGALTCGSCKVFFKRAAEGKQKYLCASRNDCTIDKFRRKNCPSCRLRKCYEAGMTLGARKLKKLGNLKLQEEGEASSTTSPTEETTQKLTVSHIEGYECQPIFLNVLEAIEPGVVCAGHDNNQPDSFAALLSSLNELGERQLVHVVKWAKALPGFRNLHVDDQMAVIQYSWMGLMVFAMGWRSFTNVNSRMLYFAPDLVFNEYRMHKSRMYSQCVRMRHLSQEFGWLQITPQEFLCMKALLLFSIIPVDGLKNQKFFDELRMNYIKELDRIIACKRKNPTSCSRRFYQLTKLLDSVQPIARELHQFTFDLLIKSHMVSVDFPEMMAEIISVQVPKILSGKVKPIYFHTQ", "UniProt P03372, whole entry, looked up": "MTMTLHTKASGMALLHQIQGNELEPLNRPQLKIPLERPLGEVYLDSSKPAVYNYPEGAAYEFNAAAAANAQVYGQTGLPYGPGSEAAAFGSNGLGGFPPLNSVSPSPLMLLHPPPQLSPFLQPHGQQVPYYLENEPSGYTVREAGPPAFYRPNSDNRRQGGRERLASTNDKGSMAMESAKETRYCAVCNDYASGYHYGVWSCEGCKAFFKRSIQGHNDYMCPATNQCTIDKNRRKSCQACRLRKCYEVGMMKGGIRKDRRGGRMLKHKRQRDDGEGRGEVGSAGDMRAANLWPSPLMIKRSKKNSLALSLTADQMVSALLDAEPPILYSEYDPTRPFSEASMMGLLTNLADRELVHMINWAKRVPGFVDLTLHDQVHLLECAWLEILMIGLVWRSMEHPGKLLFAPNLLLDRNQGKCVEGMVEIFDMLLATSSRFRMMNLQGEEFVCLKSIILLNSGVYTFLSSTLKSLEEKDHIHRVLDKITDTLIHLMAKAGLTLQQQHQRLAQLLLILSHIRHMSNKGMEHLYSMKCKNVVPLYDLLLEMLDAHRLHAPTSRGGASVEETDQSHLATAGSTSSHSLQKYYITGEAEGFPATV"}, "source": "PubChem BioAssay (EPA / NIEHS)", "key": {"[1]": {"molecular_target": "Retinoic acid receptor RXR-alpha (Homo sapiens) (UniProt P19793)", "test": "TOX21_TR_RXR_BLA_Antagonist_Followup_ratio: Tox21 Thyroid Hormone Receptor beta Retinoid X Receptor alpha (RXRa) Antagonism Beta-lactamase (BLA) Follow-Up Assay, Ratio (AID 2283972; active means hit-call score of the fitted dose curve at least 0.9, where 1 is the maximum)", "method_in_brief": "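HEK293T RXRa-bla, 2% charcoal-stripped FBS medium, 16 h compound exposure at 37C, qHTS 11 conc x3. CCF4 FRET ratio ch2/ch1 (460:530), DMSO = baseline, loss-of-signal fit.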"}, "[2]": {"molecular_target": "Nucleoli Translocation, AR (gene 367) (UniProt P10275)", "test": "UPITT_HCI_U2OS_AR_TIF2_Nucleoli_Antagonist: University of Pittsburgh U2OS Androgen Receptor-Transcriptional Intermediary Factor 2 (AR-TIF2) Antagonism High Content Imaging Assay for Nucleoli Translocation (AID 2283997; active means hit-call score of the fitted dose curve at least 0.9, where 1 is the maximum)", "method_in_brief": "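U2OS cells expressing RFP-tagged human AR and GFP-tagged TIF2 were imaged by high-content fluorescence microscopy for red AR signal in the nucleolar region. Compounds were screened at 20 uM final (0.2% DMSO), with activity fitted relative to DHT as baseline.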"}, "[3]": {"molecular_target": "Nucleoli Translocation, AR (gene 367) (UniProt P10275)", "test": "UPITT_HCI_U2OS_AR_TIF2_Nucleoli_Agonist: University of Pittsburgh U2OS Androgen Receptor-Transcriptional Intermediary Factor 2 (AR-TIF2) Agonism High Content Imaging Assay for Nucleoli Translocation (AID 2283998; active means hit-call score of the fitted dose curve at least 0.9, where 1 is the maximum)", "method_in_brief": "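Readout is red (AR-RFP) fluorescence localized to nucleoli, measured by high-content imaging and analysed for increase relative to DMSO. Compound series spanned 0.195 to 50 uM final in 0.5% DMSO.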"}, "[4]": {"test": "CCTE_Simmons_MITO_basal_resp_rate: CCTE's HepG2 Seahorse XF Respirometric Screening Assay at Basal Respiratory State, Simmons Lab (AID 2284001)", "settings": "actives raise or lower the signal", "method_in_brief": "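HepG2 cells were given test chemicals at 7 concentrations, 125 nM to 100 uM final, and oxygen consumption rate was read every 6 min (3 min mix, 3 min measure) over 72 min. Basal-phase OCR was fitted bidirectionally against DMSO.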"}, "[5]": {"test": "CCTE_Shafer_MEA_acute_spike_number: CCTE's Neural Acute Assay for Total Number of Spikes, Shafer Lab (AID 2284008)", "method_in_brief": "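Read-out is the total spike count over 40 min, expressed as percent change from each well's own pre-treatment baseline and fitted in the loss direction against DMSO. Rat cortical neurons were exposed at 0.03-40 uM on DIV 13 or 15.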"}, "[6]": {"test": "CCTE_Harrill_HTTr_CellCount_MCF7: CCTE's Cell Proliferation Assessment for the High-Throughput Transcriptomics (HTTr) Platform, Harrill Lab (AID 2284012; active means hit-call score of the fitted dose curve at least 0.9, where 1 is the maximum;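 further: intended direction is loss of nuclei count meaning fewer cells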)", "method_in_brief": "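Nuclei counting (Hoechst, high content imaging) in MCF-7 after a 6 h treatment at eight concentrations. Activity fitted bidirectionally, DMSO as negative control.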"}, "[7]": {"test": "CCTE_Shafer_MEA_acute_interburst_interval_mean: CCTE's Neural Acute Assay for Mean Interburst Interval, Shafer Lab (AID 2284016)", "method_in_brief": "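Rat cortical cultures, DIV 13/15; 20 min equilibration, 40 min baseline, compound 0.03-40 uM, 40 min re-recording, 37 C. Spikes detected at 8x rms noise (300-5000 Hz band-pass). Endpoint: % change in interburst interval, fitted in loss direction vs DMSO.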"}, "[8]": {"test": "CCTE_Shafer_MEA_acute_cross_correlation_area: CCTE's Neural Acute Assay for Area of Cross Correlation, Shafer Lab (AID 2284024);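 further: rat primary cortical neuron networks on 48-well MEA at DIV 13 or 15 with 40 min exposure; area under pooled inter-electrode spike cross-correlation near zero lag as percent change from own baseline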", "method_in_brief": "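Plates equilibrated 20 min at 37 C, then 40 min baseline was recorded, compound was added (0.03-40 uM), and a further 40 min was recorded. Wells needed ≥10 active electrodes (≥5 spikes/min) on exposure day.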"}, "[9]": {"molecular_target": "Estrogen receptor (Homo sapiens) (UniProt P03372)", "test": "CCTE_Deisenroth_AIME_384WELL_LUC_Active: CCTE's 384-well Estrogen Receptor Transactivation Assay with AIME metabolic competence (ERTA luciferase; metabolism positive), Deisenroth Lab (AID 2284030; active means hit-call score of the fitted dose curve at least 0.9, where 1 is the maximum)", "method_in_brief": "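AIME metabolism-positive mode: chemicals 0.002 - 200 uM, 2 h with alginate-bound PB/BNF-induced rat S9 → medium to VM7Luc4E2 ERTA, 24 h → luciferase. Positive fit vs 17beta-estradiol; n=4 typical.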"}, "[10]": {"test": "CCTE_Shafer_MEA_dev_per_burst_spike_percent: CCTE's Neural Network Formation Assay for Percent of Spikes in a Burst, Shafer Lab (AID 2284032)", "method_in_brief": "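Rat primary cortical neurons on 16-electrode MEA wells, dosed from plating day 0 for 12 days with renewal on DIV 5 and 9; spikes-in-bursts percentage averaged over bursting electrodes, collapsed as AUC across days 5, 7, 9, 12; loss direction versus DMSO.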"}, "[11]": {"test": "CCTE_Mundy_HCI_hNP1_Casp3_7: CCTE's Caspase-Glo 3/7 Assay in human neuroprogenitor cells for Apoptosis, Mundy Lab (AID 2284240)", "method_in_brief": "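Neuroepithelial-lineage stem cells from WA09 embryonic cells were treated with chemicals after 40–44 h of culture. Twenty-four hours later, caspase-3/7 activation was detected luminescently after a 30 min room-temperature reagent step, with DMSO as baseline.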"}, "[12]": {"test": "CCTE_Deisenroth_AIME_384WELL_CTox_Active: Cytotoxicity Assessment (CTOX) in CCTE's 384-well Estrogen Receptor Transactivation Assay with AIME metabolic competence (metabolism positive), Deisenroth Lab (AID 2284037; active means hit-call score of the fitted dose curve at least 0.9, where 1 is the maximum;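 further: activity means signal loss indicating cell death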)", "method_in_brief": "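VM7Luc4E2 breast cells received medium pre-incubated 2 h with chemical over alginate microspheres holding induced male Sprague Dawley rat liver S9; viability read 24 h later by protease-substrate fluorescence. Loss of signal, bidirectional fit, 0.002–200 uM.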"}, "[13]": {"test": "CCTE_Deisenroth_AIME_384WELL_CTox_Inactive: Cytotoxicity Assessment (CTOX) in CCTE's 384-well Estrogen Receptor Transactivation Assay without AIME metabolic competence (metabolism negative), Deisenroth Lab (AID 2284039; active means hit-call score of the fitted dose curve at least 0.9, where 1 is the maximum;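 further: cell viability via live-cell protease substrate cleaved to fluorescent probe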)", "method_in_brief": "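Metabolism-negative arm: chemicals (10-point, 0.002 - 200 uM) preincubated 2 h with alginate-water lids, medium moved onto VM7Luc4E2 cells for 24 h. Fluorescent live-cell protease readout; bidirectional curve fit.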"}, "[14]": {"molecular_target": "Estrogen receptor (Homo sapiens) (UniProt P03372)", "test": "CCTE_Deisenroth_AIME_384WELL_LUC_Shift: CCTE's 384-well Estrogen Receptor Transactivation Assay with AIME metabolic competence data shift (ERTA luciferase; difference in metabolism positive and negative), Deisenroth Lab (AID 2284041);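 further: shift is response with S9 minus without S9 so positive means metabolism raised ER signal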", "method_in_brief": "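Here, parent compounds undergo 2 h phase I metabolism by PB/BNF-induced rat S9 before 24 h transactivation in VM7Luc4E2 cells; the curve models S9-positive minus S9-negative response over a 10-point series.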"}, "[15]": {"test": "CCTE_Deisenroth_5AR_NBTE_donor: CCTE's 5alpha-reductase NanoBRET Target Engagement Assay […], Deisenroth Lab (AID 2284319)", "settings": "actives raise or lower the signal", "method_in_brief": "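SRD5A2-NanoLuc, HEK293T, 20 h expression. Chemical 10 nM - 29.9 uM, 8 conc, duplicate; 3 h preincubation + 2 h testosterone tracer. Nano-Glo substrate plus extracellular NanoLuc inhibitor; donor lum 460 nm. DMSO baseline, bidirectional fit.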"}, "[16]": {"test": "CCTE_Deisenroth_5AR_NBTE_acceptor: CCTE's 5alpha-reductase NanoBRET Target Engagement Assay - Autofluorescence Screen, Deisenroth Lab (AID 2284321);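 further: compound fluorescence in the acceptor channel under 460 nm excitation flags autofluorescence artifacts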", "settings": "actives raise or lower the signal", "method_in_brief": "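Acceptor fluorescence intensity was read as an artifact-detection endpoint. Test chemicals at an assumed nominal 100 uM were excited at 460 nm across three independent runs. Activity was fitted bidirectionally against DMSO.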"}, "SRD5A2 (gene 6716)": {"test_system": "SRD5A2 (gene 6716)", "test": "CCTE_Deisenroth_5AR_NBTE_ratio: CCTE's 5alpha-reductase NanoBRET Target Engagement Assay - Ratio, Deisenroth Lab (AID 2284322)", "settings": "actives raise or lower the signal", "method_in_brief": "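Reverse-transfect HEK293T with pNLF1-C-SRD5A2, express 20 h. Pre-incubate cells with chemical 3 h (8-point series, 10 nM - 29.9 uM, duplicate). Add testosterone tracer, 2 h more. Add substrate/inhibitor, read donor and acceptor emission.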"}}, "note": "For part of these data: This list holds what a sample rich in hits left over. Inconclusive results are not listed. The list shows a part of the results, in another mix than the full data. Where a structure was tested more than once in an assay, its records may differ in their call. Activity calls are given as the source filed them. How the source made its calls, unless noted: active means hit-call score of the fitted dose curve at least 0.9, where 1 is the maximum; inactive means score below 0.9."}
{"smiles": "Cc1ccc(Nc2nccc(N(C)c3ccc4c(C)n(C)nc4c3)n2)cc1S(N)(=O)=O", "values": [{"measurement": "outcome", "setting": "[1]", "value": "inactive"}]}
{"smiles": "C=CCc1cc(S(=O)(=O)c2ccc(O)c(CC=C)c2)ccc1O", "values": [{"measurement": "AC50", "setting": "[2]", "value": "active: 29.3 µM"}]}
{"smiles": "CN(C[C@@H](CC[N+]12CCC(C3CCCCC3)(CC1)CC2)c1ccc(Cl)c(Cl)c1)C(=O)c1cc(C(F)(F)F)cc(C(F)(F)F)c1", "values": [{"measurement": "AC50", "setting": "[3]", "value": "active: 6.39 µM"}]}
{"smiles": "COc1ccc(S(=O)(=O)N2C(=O)[C@@](c3ccccc3OC)(N3C[C@H](O)C[C@H]3C(=O)N(C)C)c3cc(Cl)ccc32)c(OC)c1", "values": [{"measurement": "outcome", "setting": "[4]", "value": "inactive"}]}
{"smiles": "CC1(C)S[C@@H]2[C@H](NC(=O)[C@H](N)c3ccc(O)cc3)C(=O)N2[C@H]1C(=O)O", "values": [{"measurement": "outcome", "setting": "[5]", "value": "inactive"}]}
{"smiles": "CC(C)CCCCCCOC(=O)C1CCCCC1C(=O)OCCCCCCC(C)C", "note": "(stereo not drawn)", "values": [{"measurement": "outcome", "setting": "[6]", "value": "inactive"}]}
{"smiles": "CCCCCCCCCCCCc1ccccc1", "values": [{"measurement": "AC50", "setting": "[7]", "value": "active: 20 µM"}]}
{"smiles": "CC(C)(C)c1cc(O)c(C(C)(C)C)cc1O", "values": [{"measurement": "outcome", "setting": "[8]", "value": "inactive"}]}
{"smiles": "O=C1OC2(c3ccc(O)cc3Oc3cc(O)ccc32)c2ccccc21", "values": [{"measurement": "outcome", "setting": "[9]", "value": "inactive"}]}
{"smiles": "Nc1ncn([C@@H]2O[C@H](CO)[C@@H](O)[C@H]2O)c(=O)n1", "values": [{"measurement": "AC50", "setting": "[10]", "value": "active: 1.26 µM"}, {"measurement": "outcome", "setting": "[11]", "value": "inactive"}]}
{"smiles": "Nc1ccccc1[N+](=O)[O-]", "values": [{"measurement": "outcome", "setting": "[12]", "value": "inactive"}]}
{"smiles": "CCC(C)(CCC(C)C)C(=O)O", "note": "(stereo not drawn)", "values": [{"measurement": "outcome", "setting": "[12]", "value": "inactive"}]}
{"smiles": "CCCCCCCCCCCCCCN(CCO)CCO", "values": [{"measurement": "AC50", "setting": "[13]", "value": "active: 146 µM"}]}
{"smiles": "CCOc1ccc2c(c1)C(C)=CC(C)(C)N2", "values": [{"measurement": "AC50", "setting": "[14]", "value": "active: 37.6 µM"}, {"measurement": "outcome", "setting": "[15]", "value": "inactive"}, {"measurement": "outcome", "setting": "[16]", "value": "inactive"}, {"measurement": "AC50", "setting": "SRD5A2 (gene 6716)", "value": "active: 50 µM"}]}
